Some of these results come from one statement about several compounds together. At least one structure is not confirmed: it was looked up by name or label, or the drawing left a doubt.
Assays:
Format in all cases: in vivo
[1] = system: Spodoptera Littoralis (Egyptian Cotton Leaf Worm); assay: Spodoptera littoralis cotton leaf disc spray test; conditions: application rate of 200 ppm; L1 larvae; 3 days after infestation
[2] = system: Diabrotica balteata (Corn Root Worm); assay: Diabrotica balteata L2 larvae test on artificial diet; conditions: application rate of 200 ppm, 5 days after infestation
Experimental: Diabrotica balteata (Corn Root Worm):
(§1) 24-well microtiter plates with artificial diet were treated with aqueous test solutions prepared from 10,000 ppm DMSO stock solutions by pipetting. After drying, the plates were infested with L2 larvae (6 to 10 per well). The samples were assessed for mortality and growth inhibition in comparison to untreated samples 5 days after infestation.

[3] = system: Tetranychus urticae (Two-Spotted Spider Mite); assay: Tetranychus urticae bean leaf disc spray test; conditions: application rate of 200 ppm; 8 days after infestation
Experimental: Tetranychus urticae (Two-Spotted Spider Mite):
Bean leaf discs on agar in 24-well microtiter plates were sprayed with aqueous test solutions prepared from 10,000 ppm DMSO stock solutions. After drying the leaf discs were infested with a mite population of mixed ages. The samples were assessed for mortality on mixed population (mobile stages) 8 days after infestation.

[4] = system: Heliothis virescens (Tobacco Budworm); assay: Heliothis virescens egg/larval test on artificial diet; conditions: application rate of 200 ppm; eggs 0-24 h old; 5 days after infestation
Experimental: Heliothis virescens (Tobacco Budworm):
Eggs (0-24 h old) were placed in 24-well microtiter plates on artificial diet and treated with aqueous test solutions prepared from 10,000 ppm DMSO stock solutions by pipetting. The samples were assessed for egg and larval mortality 5 days after infestation.

[5] = system: Plutella xylostella (Diamond Back Moth); assay: Plutella xylostella L2 larvae test on artificial diet; conditions: application rate of 200 ppm, 5 days after infestation
Experimental: Plutella xylostella (Diamond Back Moth):
as §1, with “larvae (10” for “larvae (6”, “to 15” for “to 10”

[6] = system: Thrips tabaci (Onion Thrips); assay: Thrips tabaci sunflower leaf disc spray test; conditions: application rate of 200 ppm; population of mixed ages; 6 days after infestation
Experimental: Thrips tabaci (Onion Thrips):
Sunflower leaf discs were placed on agar in 24-well microtiter plates and sprayed with aqueous test solutions prepared from 10,000 ppm DMSO stock solutions. After drying the leaf discs were infested with a thrips population of mixed ages. The samples were assessed for mortality 6 days after infestation.

| SMILES | control (at least one of mortality, anti-feedant effect, growth inhibition) [1] | effect in at least one of the two categories (mortality or growth inhibition) [2] [%] | mortality on mixed population (mobile stages) [3] | egg or larval mortality [4] [%] | effect in at least one of the two categories (mortality or growth inhibition) [5] [%] | mortality [6] [%] |
| --- | --- | --- | --- | --- | --- | --- |
| N#Cc1ccc(-c2ccc3c(c2)CC(c2cc(Cl)cc(Cl)c2)(C(F)(F)F)O3)cc1NC(=O)C1C[S+]([O-])C1 (stereo not shown) [Compound 211] | at least 80% | ≥ 80 | at least 80% | ≥ 80 | ≥ 80 | – |
| N#Cc1ccc(-c2ccc3c(c2)CC(c2ccnc(C(F)(F)F)c2)(C(F)(F)F)O3)cc1NC(=O)C1C[S+]([O-])C1 (racemic) [Compound 263] | – | – | at least 80% | – | ≥ 80 | ≥ 80 |
| O=C(Cn1cncn1)Nc1cccc(-c2ccc3c(c2)CC(c2cc(Cl)cc(Cl)c2)(C(F)(F)F)O3)c1 (stereo not shown) [Compound 52] | at least 80% | – | at least 80% | ≥ 80 | ≥ 80 | – |
| CCCC(=O)Nc1cccc(-c2ccc3c(c2)CC(c2cccc(C(F)(F)F)c2)(C(F)(F)F)O3)c1 (stereo not shown) [Compound 164] | at least 80% | ≥ 80 | at least 80% | ≥ 80 | ≥ 80 | – |
| CCC(=O)Nc1cc(-c2ccc3c(c2)CC(c2ccnc(C(F)(F)F)c2)(C(F)(F)F)O3)ccc1C#N (racemic) [Compound 256] | at least 80% | – | at least 80% | – | ≥ 80 | ≥ 80 |
| O=CNCCC(=O)Nc1cccc(-c2ccc3c(c2)CC(c2cccc(C(F)(F)F)c2)(C(F)(F)F)O3)c1 (stereo not shown) [Compound 125] | at least 80% | – | at least 80% | ≥ 80 | ≥ 80 | – |
| CC=CC(=O)Nc1cccc(-c2ccc3c(c2)CC(c2cccc(C(F)(F)F)c2)(C(F)(F)F)O3)c1 (stereo not shown) [Compound 107] | at least 80% | – | at least 80% | ≥ 80 | ≥ 80 | – |
| CSC=CC(=O)Nc1cccc(-c2ccc3c(c2)CC(c2cccc(C(F)(F)F)c2)(C(F)(F)F)O3)c1 (stereo not shown) [Compound 32] | – | ≥ 80 | at least 80% | ≥ 80 | ≥ 80 | – |
| CC(C)CC(=O)Nc1cccc(-c2ccc3c(c2)CC(c2cccc(C(F)(F)F)c2)(C(F)(F)F)O3)c1 (stereo not shown) [Compound 161] | at least 80% | ≥ 80 | at least 80% | ≥ 80 | ≥ 80 | – |
| O=C(Nc1cc(F)cc(-c2ccc3c(c2)CC(c2cc(Cl)cc(Cl)c2)(C(F)(F)F)O3)c1)C1CC1 (racemic) [Compound 10] | – | – | at least 80% | – | – | – |
| CSCC(=O)Nc1cc(-c2ccc3c(c2)CC(c2cccc(C(F)(F)F)c2)(C(F)(F)F)O3)ccc1F (stereo not shown) [Compound 74] | at least 80% | ≥ 80 | at least 80% | – | ≥ 80 | – |
| CON=C(C#N)C(=O)Nc1cccc(-c2ccc3c(c2)CC(c2cccc(C(F)(F)F)c2)(C(F)(F)F)O3)c1 (stereo not shown) [Compound 24] | – | – | at least 80% | – | – | – |
| CC1CC1C(=O)Nc1cccc(-c2ccc3c(c2)CC(c2cccc(C(F)(F)F)c2)(C(F)(F)F)O3)c1 (stereo not shown) [Compound 147] | at least 80% | ≥ 80 | at least 80% | ≥ 80 | ≥ 80 | – |
| CCN(C(=O)c1cc[n+]([O-])cc1)c1ccc(F)c(-c2ccc3c(c2)CC(c2cc(Cl)cc(Cl)c2)(C(F)(F)F)O3)c1 (racemic) [Compound 255] | – | – | at least 80% | ≥ 80 | ≥ 80 | – |
| O=C(Nc1cccc(-c2ccc3c(c2)CC(c2cc(Cl)cc(Cl)c2)(C(F)(F)F)O3)c1)c1cccnc1 (stereo not shown) [Compound 103] | at least 80% | – | at least 80% | ≥ 80 | ≥ 80 | – |
| CCOCC(=O)Nc1cccc(-c2ccc3c(c2)CC(c2cccc(C(F)(F)F)c2)(C(F)(F)F)O3)c1 (stereo not shown) [Compound 64] | at least 80% | – | at least 80% | ≥ 80 | ≥ 80 | – |
| CS(=O)(=O)CC(=O)Nc1cccc(-c2ccc3c(c2)CC(c2cccc(C(F)(F)F)c2)(C(F)(F)F)O3)c1 (stereo not shown) [Compound 115] | at least 80% | – | at least 80% | ≥ 80 | ≥ 80 | – |
| O=C(Nc1ccc(F)c(-c2ccc3c(c2)CC(c2cc(Cl)cc(Cl)c2)(C(F)(F)F)O3)c1)C1CC1 (racemic) [Compound 80] | at least 80% | ≥ 80 | – | ≥ 80 | ≥ 80 | ≥ 80 |
| O=C(Nc1cccc(-c2ccc3c(c2)CC(c2cccc(C(F)(F)F)c2)(C(F)(F)F)O3)c1)c1cnccn1 (stereo not shown) [Compound 59] | at least 80% | – | at least 80% | ≥ 80 | ≥ 80 | – |
| O=C(Nc1cc(-c2ccc3c(c2)CC(c2cc(Cl)cc(Cl)c2)(C(F)(F)F)O3)ccn1)C1CC1 (racemic) [Compound 78] | at least 80% | – | at least 80% | ≥ 80 | – | – |
| CCC(=O)Nc1ccc(F)c(-c2ccc3c(c2)CC(c2cc(Cl)cc(Cl)c2)(C(F)(F)F)O3)c1 (stereo not shown) [Compound 187] | at least 80% | ≥ 80 | – | ≥ 80 | ≥ 80 | ≥ 80 |
| CCC(=O)Nc1ccnc(-c2cc3c(cc2C)OC(c2cc(Cl)cc(Cl)c2)(C(F)(F)F)C3)c1 (stereo not shown) [Compound 155] | at least 80% | ≥ 80 | – | ≥ 80 | ≥ 80 | ≥ 80 |
| CC(Cl)C(=O)Nc1cccc(-c2ccc3c(c2)CC(c2cccc(C(F)(F)F)c2)(C(F)(F)F)O3)c1 (stereo not shown) [Compound 122] | at least 80% | ≥ 80 | at least 80% | ≥ 80 | ≥ 80 | – |
| O=CNCC(=O)Nc1cccc(-c2ccc3c(c2)CC(c2cccc(C(F)(F)F)c2)(C(F)(F)F)O3)c1 (stereo not shown) [Compound 119] | at least 80% | – | at least 80% | ≥ 80 | ≥ 80 | – |
| CSCC(=O)Nc1cccc(-c2ccc3c(c2)CC(c2cc(Cl)c(Cl)c(Cl)c2)(C(F)(F)F)O3)c1 (stereo not shown) [Compound 133] | at least 80% | ≥ 80 | – | ≥ 80 | ≥ 80 | ≥ 80 |
| N#Cc1ccc(-c2ccc3c(c2)CC(c2ccnc(C(F)(F)F)c2)(C(F)(F)F)O3)cc1NC(=O)C1CS(=O)(=O)C1 (racemic) [Compound 264] | at least 80% | – | at least 80% | – | ≥ 80 | – |

Reference: US9598389B2, “Dihydrobenzofuran derivatives as insecticidal compounds” (SYNGENTA PARTICIPATIONS AG, priority 2013, dated 2017)
